Literature values as cited in US12187997B2, “Integrated human organ-on-chip microphysiological systems” (President and Fellows of Harvard College, priority 2011, dated 2025).

Conditions: Table 1

SMILES: CCCCc1oc2ccccc2c1C(=O)c1cc(I)c(OCCN(CC)CC)c(I)c1 [Amiodarone]
- Organ Toxicity: Lung, liver
